Measurements from patent publication US20250109212A1.
Substitutions are numbered along the chain they refer to. No constants are given. Whether binding was seen depends on the method and setting. Some binding calls cover weakened binding; strength is not graded here. Each block holds one binder with its values, some of them ahead of it.

Target: cynomolgus CD47-his protein (Cat #: CD7-C52H1, Acro biosystems) (cynomolgus)
Experiment: SPR (Biacore)

binding: binds
B1: BSI038×S-004 (bispecific antibody, human IgG2, kappa)
heavy: EEELQVIQPDKSVSVAAGESAILHCTITSLIPVGPIQWFRGAGPARELIYNQREGHFPRVTTVSETTKRENMDFSISISNITPADAGTYYCVKFRKGSPDTEFKSGAGTELSVRAKPSAPVVSGPAARATPGGGGSGGGGSEVQLVESGGGLVKPGGSLRLSCAASGFTFSNYGISWVRQAPGKGLEWVSSISSGGDNTYYPDNVKGRFTISRDNAKNSLYLQMNSLRAEDTAVYYCARAGEKAMDYWGQGTLVTVSSASTKGPSVFPLAPCSRSTSESTAALGCLVKDYFPEPVTVSWNSGALTSGVHTFPAVLQSSGLYSLSSVVTVPSSNFGTQTYTCNVDHKPSNTKVDKTVERKCCVECPPCPAPPVAGPSVFLFPPKPKDTLMISRTPEVTCVVVDVSHEDPEVQFNWYVDGVEVHNAKTKPREEQFNSTFRVVSVLTVVHQDWLNGKEYKCKVSNKGLPAPIEKTISKTKGQPREPQVYTLPPSREEMTKNQVSLTCLVKGFYPSDIAVEWESNGQPENNYKTTPPMLDSDGSFFLYSKLTVDKSRWQQGNVFSCSVMHEALHNHYTQKSLSLSPGK
light: EIVLTQSPATLSLSPGERATLSCRASQTINNNLHWYQQKPGQAPRLLIKYASQSISGIPARFSGSGSGTDFTLTISSLEPEDFAVYFCQQFSSWPLTFGGGTKVEIKRTVAAPSVFIFPPSDEQLKSGTASVVCLLNNFYPREAKVQWKVDNALQSGNSQESVTEQDSKDSTYSLSSTLTLSKADYEKHKVYACEVTHQGLSSPVTKSFNRGEC

binding: binds
B2: BSI038×S-005 (bispecific antibody, human IgG2, kappa)
heavy: B1 heavy with K68R, F103V
light: B1 light
